Data from paper PMC9315884, “New Membrane Active Antibacterial and Antiviral Amphiphiles Derived from Heterocyclic Backbone of Pyridinium-4-Aldoxime” (Pharmaceuticals, 2022).
pIC50: −log10 of the molar value. Several values for one entry are separate records, joined by “and”; a condition that tells them apart may be missing. Identical values can stand only once.

Tests used:
[1] = system: Enterococcus faecalis ATCC29212; experiment: Broth microdilution assay (MIC); type: cell-based
Description: (§1) The antibacterial activity of all compounds was evaluated by determining the minimum inhibitory concentration (MIC), which is defined as the lowest concentration of the compound at which no visible bacterial growth is detected. The compounds were tested against representatives of Gram-positive and Gram-negative strains, including the ESKAPE bacterium Staphylococcus aureus ATCC25923 and the clinical isolate of methicillin-resistant S. aureus (MRSA), which are known for their pathogenicity.
(§2) All microbial strains were maintained at ™80 °C for long-term storage and subcultured on Mueller-Hinton (MH) agar (Biolife, Italy) prior to broth microdilution experiments. The MH plates were stored at +4 °C for no longer than one month.
(§3) Antibacterial activity was evaluated using the Broth Microdilution Assay according to the Clinical and Laboratory Standard Institute’s Methods for Dilution Antimicrobial Susceptibility Test for Bacteria That Grow Aerobically; Approved Standard-Tenth Edition.
(§4) The stock solution of QAS (10 mg/mL) was prepared in 4% DMSO. Then, 100 µL of the tested QAS was added to the first well of the microtiter plate. Twofold serial dilutions in Muller-Hinton broth were performed over the entire plate at a concentration range of 5 mg/mL to 5 µg/mL. […] The minimum inhibitory concentration (MIC) was determined as the lowest concentration at which no visually detectable bacterial growth occurred in the wells.

[2] = system: Escherichia coli ATCC25922; experiment: Broth microdilution assay (MIC); type: cell-based
Description: as §1, §2, §3, §4

[3] = system: Staphylococcus aureus ATCC25923; experiment: Broth microdilution assay (MIC); type: cell-based
Description: as §1, §2, §3, §4

[4] = system: Listeria monocytogenes ATCC7644; experiment: Broth microdilution assay (MIC); type: cell-based
Description: as §1, §2, §3, §4

[5] = system: Bacillus cereus ATCC14579; experiment: Broth microdilution assay (MIC); type: cell-based
Description: as §1, §2, §3, §4

[6] = system: Pseudomonas aeruginosa ATCC27853; experiment: Broth microdilution assay (MIC); type: cell-based
Description: as §1, §2, §3, §4

[7] = system: MRSA in the biofilm state; conditions: cited from earlier work
RPE1 cells = experiment: Cytotoxicity (MTS assay); conditions: Homo sapiens, RPE-1, 48 h, read-out: IC50 (50% inhibition of cell growth)
Description: (§5) Keratinocytes are the primary cell type found in the outermost layer of the skin. Therefore, HaCaT cells were used as a model for human skin, and RPE1 are retinal pigment epithelial cells, thus a model for epithelial cell type.
(§6) Cells were grown in DMEM media in a humidified environment with 5% CO2 and 37 °C. To determine cytotoxicity, a twofold serial dilution of a tested compound starting at 5 mg/mL was prepared in a 96-well plate. Five thousand cells were pipetted into each well, and the cells were grown for an additional 48 h. Then, the reagent MTS (20 μL) was added to the cells according to the manufacturer’s instructions (CellTiter 96® Aqueous One Solution Cell Proliferation Assay, Promega). After 3 h of incubation, the absorbance was measured at 490 nm. IC50 values were determined by plotting compound concentration against absorbance using GraFit6 software.

HaCaT cells = experiment: Cytotoxicity (MTS assay); conditions: Homo sapiens, 48 h, read-out: IC50 (50% inhibition of cell growth)
Description: as §5, §6

[8] = system: methicillin-resistant Staphylococcus aureus clinical strain MRSA; experiment: Broth microdilution assay (MIC); type: cell-based
Description: as §1
(§7) The collection included five Gram-positive strains, including Staphylococcus aureus (ATCC 25923 and a methicillin-resistant Staphylococcus aureus clinical strain MRSA), Bacillus cereus ATCC 14579, Enterococcus faecalis ATCC 29212, and Listeria monocytogenes ATCC 7644; and three Gram-negative strains: Escherichia coli ATCC 25922, Pseudomonas aeruginosa ATCC 27853 and the food isolate Salmonella enterica. […]
as §3
(§8) The stock solution of QAS (10 mg/mL) was prepared in 4% DMSO. […] The minimum inhibitory concentration (MIC) was determined as the lowest concentration at which no visually detectable bacterial growth occurred in the wells.

[9] = system: Salmonella enterica food isolate; experiment: Broth microdilution assay (MIC); type: cell-based; conditions: S. enterica food isolate, standards
Description: as §1, §7, §3, §8

In the case of `CCCCCCCCCCCCCCCC[n+]1ccccc1` [CPC, Cetylpyridinium chloride, reference compound], the MIC [1] was 2.7 µg/mL and 10 µM, the MIC [2] was 5.3 µg/mL and 20 µM and the MIC [3] was 1.4 µg/mL and 4.1 µM. For the same compound, the MIC [4] was 2.7 µg/mL and 10 µM, the MIC [5] was 5.3 µg/mL and 20 µM and the MIC [6] was 850 µg/mL and 250 µM. The “fold lower efficacy against resistant bacteria” value [7] was 4 fold, the pIC50 (RPE1 cells) was > 3.30 and the pIC50 (HaCaT cells) was > 3.30. For the same compound, the MIC [8] was 2.7 µg/mL and 10 µM and the MIC [9] was 21.2 µg/mL and 60 µM.
